PMC3023790

By UniProt entry, the sequences of proteins in these tests, tags left out. Where a name states a change or a piece, a line headed by the entry shows the natural chain unless it says otherwise.
UniProt Q9C5T4: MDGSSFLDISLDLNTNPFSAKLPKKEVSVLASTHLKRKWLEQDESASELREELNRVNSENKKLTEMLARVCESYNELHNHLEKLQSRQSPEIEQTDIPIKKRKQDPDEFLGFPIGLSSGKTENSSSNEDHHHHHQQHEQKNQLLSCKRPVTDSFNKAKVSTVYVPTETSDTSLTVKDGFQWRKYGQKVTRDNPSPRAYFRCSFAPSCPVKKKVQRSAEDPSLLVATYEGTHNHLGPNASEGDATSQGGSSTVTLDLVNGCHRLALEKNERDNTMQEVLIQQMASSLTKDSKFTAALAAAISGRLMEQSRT

Legend:
WRKY40 = molecular target: T1, WRKY40 (UniProt Q9SAH7); test: EMSA; details: 200 fmol protein, 20 fmol probe, Pierce LightShift Chemiluminescent EMSA kit per manual, 200 fmol recombinant protein, 20 fmol biotin-labeled probe, pH and temperature not stated, label: 5' biotin
T1 sequence (looked up, limits assumed): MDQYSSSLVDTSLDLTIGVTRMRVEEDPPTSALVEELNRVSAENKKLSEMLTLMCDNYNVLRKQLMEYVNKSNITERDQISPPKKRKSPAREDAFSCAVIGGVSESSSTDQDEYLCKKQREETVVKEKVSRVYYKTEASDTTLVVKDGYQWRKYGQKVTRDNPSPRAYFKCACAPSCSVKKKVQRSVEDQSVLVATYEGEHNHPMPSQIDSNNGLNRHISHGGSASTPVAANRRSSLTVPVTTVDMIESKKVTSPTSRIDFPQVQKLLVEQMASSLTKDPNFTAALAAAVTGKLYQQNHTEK

WRKY18 = WRKY18 (UniProt Q9C5T4); test: EMSA; details: 200 fmol protein, 20 fmol probe, Pierce LightShift Chemiluminescent EMSA kit per manual, 200 fmol recombinant protein, 20 fmol biotin-labeled probe, pH and temperature not stated, label: 5' biotin

Row | Sequence | binding result (WRKY40) | binding result (WRKY18)
1 | GCTTGAATTGAACCATTGAATATG (double strand) [mPW60] | no binding | no binding
2 | GCTTGACTTGACCCATTGACTATG (double strand) [PW60] | binds | binds

Construct, isoform or probe ends are uncertain for at least one entry. Negatives hold for the conditions tested. For some of these results: Where a protein sequence is shown, tags need not be part of it.
